These are yes or no findings as the source states them, for the method shown. Binding seen in cells or lysates may run through a third protein. Some results given as binding are weak or reduced against the parent protein; the word gives no strength.
Target: Bcl-2 (human (endogenous in A549)), P10415
Assay: co-IP; immunoprecipitation from A549 cells exposed to LPS; precipitating antibody and conditions not stated
Conditions: remark: other sources report otherwise

binding: binds
B1: Bad, Q92934 1-168 (protein)
chain: MFQIPEFEPSEQEDSSSAERGLGPSPAGDGPSGSGKHHRQAPGLLWDASHQQEQPTSSSHHGGAGAVEIRSRHSSYPAGTEDDEGMGEEPSPFRGRSRSAPPNLWAAQRYGRELRRMSDEFVDSFKKGLPRPKSAGTATQMRQSSSWTRVFQSWWDRNLGRGSSAPSQ
